Measured values from article PMC10679814, “Yeast lunapark regulates the formation of trans-Sey1p complexes for homotypic ER membrane fusion” (iScience, 2023).
No constants are given. Whether binding was seen depends on the method and setting. Binding seen in cells or lysates may run through a third protein. Some entries that bind do so weakly or less than the wild type. Where a sequence is shown, tags or fusion partners need not be part of it.

Columns and labels:
[1] = biological target: Sey1p, as two differently tagged copies (Sey1p-myc and EGFP-Sey1p) in yeast ER microsomes (S. cerevisiae) (UniProt Q99287); assay: co-IP; trans-Sey1p complex formation assay as a1, without guanine nucleotide
[2] = biological target: Sey1p, as two differently tagged copies (Sey1p-myc and EGFP-Sey1p) in yeast ER microsomes (S. cerevisiae) (UniProt Q99287); assay: co-IP; trans-Sey1p complex formation assay as a1, with 1 mM GTP
[3] = biological target: Sey1p, as two differently tagged copies (Sey1p-myc and EGFP-Sey1p) in yeast ER microsomes (S. cerevisiae) (UniProt Q99287); assay: co-IP; trans-Sey1p complex formation assay as a1, with 1 mM GDP
[4] = biological target: Sey1p, as two differently tagged copies (Sey1p-myc and EGFP-Sey1p) in yeast ER microsomes (S. cerevisiae) (UniProt Q99287); assay: co-IP; trans-Sey1p complex formation assay as a1, with 1 mM GTPγS
[5] = biological target: Sey1p, as two differently tagged copies (Sey1p-myc and EGFP-Sey1p) in yeast ER microsomes (S. cerevisiae) (UniProt Q99287); assay: co-IP; trans-Sey1p complex formation assay as a1, with 1 mM GDP/AlF4-
[6] = biological target: Sey1p, as two differently tagged copies (Sey1p-myc and EGFP-Sey1p) in yeast ER microsomes (S. cerevisiae) (UniProt Q99287); assay: co-IP; trans-Sey1p complex formation assay as a1, with 1 mM GDP; remark: listed apart in the source
[7] = biological target: Sey1p, as two differently tagged copies (Sey1p-myc and EGFP-Sey1p) in yeast ER microsomes (S. cerevisiae) (UniProt Q99287); assay: co-IP; cis-Sey1p complex assay: microsomes from a sey1Δ strain co-expressing Sey1p-myc and EGFP-Sey1p, solubilised, anti-myc IP with Protein A Sepharose, blot with anti-Sey1p; with or without LNP1
[8] = biological target: Sey1p, as two differently tagged copies (Sey1p-myc and EGFP-Sey1p) in yeast ER microsomes (S. cerevisiae) (UniProt Q99287); assay: co-IP; trans-Sey1p complex formation assay: microsomes from BJ-Sey1p-myc and from BJ-EGFP-Sey1p mixed, 27°C, 10 mM Pipes-KOH pH 6.8, 125 mM KCl, 5 mM MgCl2, 200 mM sorbitol, with 1 mM GMP-PNP; pelleted, solubilised in 0.4% Triton X-100, anti-myc IP, blot with anti-GFP; microsomes of wild-type, lnp1Δ, LNP1-overexpressing or Lnp1p-3xHA variant strains

binding [1]: binds weakly | binding [2]: binds weakly | binding [3]: binds weakly | binding [4]: no binding (condition: with 1 mM GTPγS) | binding [5]: binds | binding [6]: no binding (condition: with 1 mM GDP) | binding [7]: binds | binding [8]: binds
B1: Sey1p, as two differently tagged copies (Sey1p-myc and EGFP-Sey1p) in yeast ER microsomes (protein, UniProt Q99287 1-776)
chain: MADRPAIQLIDEEKEFHQSALQYFQQCIGNRDVGLDYHVISVFGSQSSGKSTLLNVLFNTNFDTMDAQVKRQQTTKGIWLAHTKQVNTTIEIDNDRPDIFVLDVEGSDGSERGEDQDFERKAALFAIAVSEVLIVNMWEQQIGLYQGNNMALLKTVFEVNLSLFGKNDNDHKVLLLFVIRDHVGVTPLSSLSDSVTRELEKIWTELSKPAGCEGSSLYDYFDLKFVGLAHKLLQEDKFTQDVKKLGDSFVMKGTENYYFKPQYHHRLPLDGWTMYAENCWDQIERNKDLDLPTQQILVARFKTEEISNEALEEFISKYDESIAPLKGNLGSLTSQLVKLKEECLTKYDEQASRYARNVYMEKREALNTKLNSHISGTINEFLESLMEKLWDDLKLEVSSRDKATTSFVESVAAGKSKIEKEFNESMETFKKLGLLISNEEITCKFSDDIEERIKQLRDAELKAKIGRIKKNLVPELKDHVIHLLSHPSKKVWDDIMNDFESTIKDNISAYQVEKDKYDFKIGLSESENAKIYKNIRILAWRTLDTTVHDYLKIDTIVSILRDRFEDVFRYDAEGSPRLWKTEEEIDGAFRVAKEHALEVFEVLSLAVTSDNVEIIPDVPMAEEESGEDNEIYRDNEGVFHSRRFAHILTELQKENVLDQFRRQINITVLDSKRSIITTRTHIPPWIYVLLAVLGWNEFVAVIRNPLFVTLTLILGATFFVIHKFGLWGPVVNVVQSAVGETRTAIKDKLRQFVVEDHEVKESFEMKDFSKNEQKEK
